What was measured:
[1] = tested on: SD rats infused intracerebroventricularly with Aβ1-42; test: Acetylcholine and choline levels in brain cortex and hippocampus of rats; format: in vivo, rat; conditions: oral; D 2.5 and 5 mg/kg, Aricept 0.75 mg/kg
Procedure: (§1) The rats were anesthetized for implantation of an infusion cannula into the left cerebral ventricle thereof. After sewing up the incisions, the rats were returned to their cages. FIG. 7 illustrates the experimental schedule for animal studies. The exploration behavior tests were carried out on day 7, the passive avoidance learning tests were carried out on day 8 and 9, the water maze tests were carried on day 10 to 13, and the probe tests were carried out on day 14, after the start of Aβ1-42 infusion. […] The test samples were administered orally to the rats, 1 hour before the tests (i.e., the exploration behavior tests, the passive avoidance learning tests, and the water maze tests) throughout the experimental period. […] All the test samples were prepared freshly with deionized distilled water (ddH2O) every day, and were administered orally by stomach tube.
(§2) Significant difference between the Aβ1-42 control group and the other experimental groups were indicated by *., P<0.05, *.*, P<0.01, and. ***., P<0.001.
After the water maze performance tests, all rats were decapitated and their brains were rapidly removed from the skull. […]

[2] = tested on: SD rats infused intracerebroventricularly with Aβ1-42; test: Dopamine (DA) and metabolites DOPAC and HVA levels in brain cortex and hippocampus of rats; format: in vivo, rat; conditions: for DA level / DOPAC level / HVA level: oral 0.75 mg/kg, mean±SD
Procedure: as §1, §2
After the water maze performance tests, all rats were decapitated and their brains were rapidly removed from the skull. According to Glowinski and Iversen, the brain cortex and hippocampus were separated, and then each cortex and hippocampus were weighed and were homogenized by addition of 50 mM Na-phosphate buffer (pH 7.8) for analyzing the concentrations of neurotransmitters and the levels of enzymes.

## COc1cc2c(cc1OC)C(=O)C(CC1CCN(Cc3ccccc3)CC1)C2 (centres unmarked) [Aricept, reference compound]
[1]
  acetylcholine levels in the brain cortex and hippocampus: reverse the decrease in acetylcholine levels
[2]; brain cortex
  DA level: 3.10 ± 0.46
  DOPAC level: 10.49 ± 2.38
  HVA level: 2.42 ± 0.78
[2]; brain hippocampus
  DA level: 1.33 ± 0.37
  DOPAC level: 3.19 ± 1.00
  HVA level: 2.45 ± 0.33
[2]; oral, D 2.5 and 5 mg/kg, Aricept 0.75 mg/kg
  DA levels in the cortex and hippocampus (in words): reverse the decrease in DA levels

— patent US20120009131A1, “METHOD FOR PREVENTING OR TREATING AMYLOID BETA PEPTIDE-ASSOCIATED DISEASES OR CONDITIONS, AND METHOD FOR INHIBITING FORMATION, ACCUMULATION OR AGGREGATION OF AMYLOID BETA PEPTIDES” (Sinphar Tian-Li Pharmaceutical Co., Ltd. (Hangzhou), priority 2010, published 2012)
